Test results published in PubChem BioAssay AID485318 (Broad Institute, 2010).
Fewer than 10 of roughly 1,400 compounds were called active.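 The calls were made as follows: active = fluorescence-lowering compounds whose fitted half-maximal concentration is at or below ten times the highest valid dose tested; inconclusive = flat curve at 30 to 70% inhibition, or poor fit; inactive = the rest.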 This is one part of the list.

Protein sequences, listed by entry. Tags and fused reporters are not part of them. Lines headed by an entry give the natural chain unless they say otherwise; changes in a name come on top.
UniProt O15379: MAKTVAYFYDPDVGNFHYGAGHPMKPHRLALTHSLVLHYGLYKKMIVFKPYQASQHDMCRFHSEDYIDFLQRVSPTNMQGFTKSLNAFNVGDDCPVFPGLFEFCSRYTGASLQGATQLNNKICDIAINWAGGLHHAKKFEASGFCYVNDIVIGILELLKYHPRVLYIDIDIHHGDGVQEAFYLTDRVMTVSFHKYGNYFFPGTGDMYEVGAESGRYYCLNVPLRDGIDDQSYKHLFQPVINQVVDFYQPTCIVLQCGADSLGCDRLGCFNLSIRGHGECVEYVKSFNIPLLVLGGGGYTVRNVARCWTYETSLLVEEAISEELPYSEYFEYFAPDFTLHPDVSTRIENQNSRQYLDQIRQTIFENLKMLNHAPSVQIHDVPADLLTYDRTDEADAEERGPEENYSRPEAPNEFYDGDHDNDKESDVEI

biological target: Histone deacetylase 3 (Homo sapiens) (UniProt O15379); experiment: HDAC3 deacetylase inhibitors, dose response, counter-screen for JMJD2C/GASC1 demethylase inhibitor project, biochemical, fluorescence, cherry-picked samples (AID 485318); conditions: recombinant HDAC3, fluorogenic peptide/trypsin coupled; at 12 µM (top of the series);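 also: enzyme preincubated with compound before substrate and trypsin were added; 0% = neutral control wells and -100% = SAHA positive control wells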

Structure (SMILES)	activity change, negative = inhibition
Cc1ccc(OCc2nnnn2-c2ccccc2)cc1	inactive: 0.0431%
Cc1ccc(-c2csc3nc(C)n(-n4c(C)ccc4C)c(=O)c23)o1	inactive: 0.0945%
CC(C)(C)OC(=O)NNC(=O)Nc1ccccc1C(F)(F)F	inactive: -0.306%
COc1cccc(C2c3[nH]c4ccccc4c3CCN2CCCn2cccn2)c1 (configuration not stated)	inactive: 0.00709%
Cc1ccc(C(C)C)c(Oc2nnnn2-c2ccccc2)c1	inactive: 0.671%
Oc1cc(O)cc(/C=C/c2ccc(O)c(O)c2)c1	inactive: 0.381%
Cc1noc(C)c1NC(=O)Nc1cccc2c1O[C@H](CN(C)S(=O)(=O)c1cccs1)[C@@H](C)CN([C@H](C)CO)C2=O	inactive: 0.216%
CSc1nc(N)nc2c1ncn2CC(=O)N[C@H](CO)Cc1c[nH]c2ccccc12	inactive: -0.258%
O=C1[C@@H]2[C@H](C(=O)N1O)[C@H]1C=C[C@@H]2C1	inactive: 0.87%
CCOC(=O)[C@H]1[C@H]2COc3ccc(OC)cc3[C@@H]2N2C(=O)c3cc(C)ccc3NC(=O)[C@@]12C	inactive: 0.0466%
CCn1nnnc1SCC(=O)NCc1cccs1	inactive: -0.443%
O=C(Nc1cccnc1)c1ccc2c(c1)C(=O)N(Cc1cccnc1)C2=O	inactive: 0.515%
CCC(C)(C)NC(=O)C(c1cccn1C)N(Cc1ccc(OC)cc1)C(=O)Cn1nnc2ccccc21 (configuration not stated)	inactive: -0.142%
Cc1cc(NC(=O)CCC(=O)N(c2ccccc2)C2(C(=O)NC3CCCCC3)CCCC2)no1	inactive: 0.846%
CC(=O)c1c(C)[nH]c(C(=O)NCCC2=CCCCC2)c1C	inactive: 0.207%
O=C(NCc1cccs1)c1cccnc1C(=O)O	inactive: 0.975%
Cc1noc(C)c1CCC(=O)N1CCCC(CCC(=O)NCc2ccccc2F)C1 (configuration not stated)	inactive: 0.141%
O=c1cc(N2CCc3ccccc32)[nH]c(=O)n1-c1ccccc1	inactive: 0.0216%
CCCN(CCC)CCNC(=O)CS(=O)Cc1nc(-c2ccc(C)cc2)oc1C (configuration not stated)	inactive: 0.188%
COC(=O)C1CN(S(=O)(=O)c2ccc(C)cc2)CCN1S(=O)(=O)c1ccc(C)cc1 (configuration not stated)	inactive: 0.577%
COC(C(=O)Nc1ccc(NC(=O)C(OC)c2ccccc2)cc1)c1ccccc1 (configuration not stated)	inactive: 0.102%

Structure (SMILES)	activity change, negative = inhibition
CCN(C[C@H]1N[C@@](Cc2ccccc2)(C(=O)OC)[C@H]2C(=O)N(Cc3ccccc3)C(=O)[C@@H]12)S(=O)(=O)c1ccccc1	inactive: -0.121%
COc1ccc(NC(=O)N(C)C[C@H]2Oc3c(NS(=O)(=O)c4cccs4)cccc3C(=O)N([C@@H](C)CO)C[C@@H]2C)cc1	inactive: 0.176%
COc1cccc(NC(=O)CCN2C(=O)C3CC=CCC3C2=O)c1 (configuration not stated)	inactive: -0.294%
CC1=NN(C(=O)Cc2ccccc2)C(O)(c2cccnc2)C1 (configuration not stated)	inactive: -0.309%
O=C(/C=C\Nc1ccc(Cl)cn1)c1ccc(Br)cc1	inactive: -0.0873%
CC(C)(C)c1ccc(-c2csc(NNC3=NCCCCC3)n2)cc1	inactive: -9.81%
Cc1onc(-c2c(F)cccc2Cl)c1C(=O)N1CCN(S(C)(=O)=O)CC1	inactive: 0.715%
CC(C)(C)OC(=O)C[C@@H]1C/C=C\C[C@H](CC(=O)N[C@H](CO)Cc2ccccc2)C(=O)N[C@@H](Cc2ccccc2)COC1=O	inactive: 1.08%
O=C(COC(=O)c1ccco1)NNC(=O)c1ccc(Cl)cc1	inactive: -0.393%
COc1c(Cl)cc(Cl)cc1/C=C/C(=O)c1ccc(NC(=O)c2cccs2)cc1	inactive: -1.14%
Cc1nc(-c2ccc(C(=O)N3CCCC3)cc2)cs1	inactive: 0.0771%
O=C(CCSCc1ccccc1F)NCCc1ccccc1	inactive: 0.826%
Fc1cccc(/C=N/Nc2nc3ccccc3[nH]2)c1	inactive: -0.215%
CCOC(=O)Cn1nc(C)c2c1CCCC2=O	inactive: -0.467%
O=C(COc1ccc(Cl)cc1)NCCCn1ccnc1	inactive: 0.538%
O=C(Nc1nc2c(s1)C(=O)CCC2)c1ccccc1	inactive: 0.163%
CCC(NS(=O)(=O)c1cccs1)c1ccc(C)cc1 (configuration not stated)	inactive: 0.629%
Cc1cccc(C)c1N1C(=O)c2cccc([N+](=O)[O-])c2C1=O	inactive: -0.27%
C[C@@]12C(=O)Nc3ccc(Cl)cc3C(=O)N1[C@H]1c3cc(Br)ccc3OC[C@@H]1[C@@H]2c1ccccc1	inactive: -0.886%
CN(c1ccc(OCC(=O)N2CCCCC2)cc1)S(=O)(=O)c1cccs1	inactive: -0.149%
O=C(C/C=N/OCc1ccc(Cl)cc1Cl)c1ccccc1	inactive: 0.293%

An excerpt from the list above, as a working copy:
Structure (SMILES)	activity change, negative = inhibition
COc1cccc(C2c3[nH]c4ccccc4c3CCN2CCCn2cccn2)c1 (configuration not stated)	inactive: 0.00709%
Cc1ccc(C(C)C)c(Oc2nnnn2-c2ccccc2)c1	inactive: 0.671%
Oc1cc(O)cc(/C=C/c2ccc(O)c(O)c2)c1	inactive: 0.381%
Cc1noc(C)c1NC(=O)Nc1cccc2c1O[C@H](CN(C)S(=O)(=O)c1cccs1)[C@@H](C)CN([C@H](C)CO)C2=O	inactive: 0.216%
CSc1nc(N)nc2c1ncn2CC(=O)N[C@H](CO)Cc1c[nH]c2ccccc12	inactive: -0.258%
O=C1[C@@H]2[C@H](C(=O)N1O)[C@H]1C=C[C@@H]2C1	inactive: 0.87%
CCOC(=O)[C@H]1[C@H]2COc3ccc(OC)cc3[C@@H]2N2C(=O)c3cc(C)ccc3NC(=O)[C@@]12C	inactive: 0.0466%
CCn1nnnc1SCC(=O)NCc1cccs1	inactive: -0.443%
O=C(Nc1cccnc1)c1ccc2c(c1)C(=O)N(Cc1cccnc1)C2=O	inactive: 0.515%
